Patent publication US9187790B2, “Saccharification of lignocellulosic biomass” (priority 2012, dated 2015)
Some entries share one result that the patent states for a list of compounds. For at least one compound, name, drawing or mass did not settle the structure.

Tested on: Saccharomyces cerevisiae
Experiment: Glucose fermentation to ethanol in the presence of residual salt
Type: cell-based
Text: Complete separation of LiBr from sugars is difficult and expensive. Small amounts of LiBr or CaBr2 may be retained in the sugar product stream generated by the processes of this invention. If the sugars are intended for use for fermentation, the residual salt could potentially affect the fermentation. […]

[Br-].[Br-].[Ca+2] [CaBr2]
residual level tolerated in sugar product streams for fermentation to ethanol: below 5 % (w/v)
